Consider 1 sequence from publication PMC7432914, “Corynebacterium glutamicum CrtR and Its Orthologs in Actinobacteria: Conserved Function and Application as Genetically Encoded Biosensor for Detection of Geranylgeranyl Pyrophosphate” (International Journal of Molecular Sciences, 2020).

The subject of this series is T1, CrtR ortholog (CrtRPc) (Pseudarthrobacter chlorophenolicus DSM 12829).
T1 sequence (looked up, limits assumed): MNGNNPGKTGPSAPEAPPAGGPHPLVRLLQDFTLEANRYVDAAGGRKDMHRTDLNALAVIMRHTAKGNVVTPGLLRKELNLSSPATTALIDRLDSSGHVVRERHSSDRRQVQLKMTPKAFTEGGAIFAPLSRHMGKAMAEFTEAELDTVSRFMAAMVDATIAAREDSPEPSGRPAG
Briefly: EMSA. As to conditions: GGPP (100-650 uM), inhibits binding; 50 mM Tris-HCl pH 7.5, 10% glycerol, 50 mM KCl, 10 mM MgCl2, 0.5 mM EDTA; 20 uL, 30-90 ng DNA, 30 min at room temperature; recombinant protein; protein details: N-terminal His-tag (pET16b), not removed; probe letters rebuilt from the primers and the genome. (In EMSA bound probe runs differently from free probe, usually more slowly.)

The exact form of at least one protein or probe is not confirmed. The comparison behind a weaker result is the experiment's own reference, which may not be listed here. Where a protein sequence is shown, tags need not be part of it.

Turning to “TGCCTTCCATGCGGATGGTCCACGCGGGACAAAGCGGAGTAGGATTGGTTCCACATTAGACTATCTCCATGATAGAGATAAGTGCCAGTCAAGCTTTTTCAACGGGGGCCTCCGCCGGGGGCTTCCACGGCTGAGCCAGGTAATGCCAAGGCAGCTGAAGTAATATCCCTCAGGGCCTGTGCGCAAAGACGGACGGCCCCACGAACTCCAGGAGGTGACCATGAACGGCAACAATCCGGGCA (double strand) [P. chlorophenolicus crtR-mmpl intergenic region (PcrtR)]”, the binding result is given as “binds more weakly”.
